For 1 substance, binding results are on record in PMC11601812.

Protein sequences, listed by entry. Tags and fused reporters are not part of them. Lines headed by an entry give the natural chain unless they say otherwise; changes in a name come on top. Residues count along the entry.
UniProt P06401, residues 165-933: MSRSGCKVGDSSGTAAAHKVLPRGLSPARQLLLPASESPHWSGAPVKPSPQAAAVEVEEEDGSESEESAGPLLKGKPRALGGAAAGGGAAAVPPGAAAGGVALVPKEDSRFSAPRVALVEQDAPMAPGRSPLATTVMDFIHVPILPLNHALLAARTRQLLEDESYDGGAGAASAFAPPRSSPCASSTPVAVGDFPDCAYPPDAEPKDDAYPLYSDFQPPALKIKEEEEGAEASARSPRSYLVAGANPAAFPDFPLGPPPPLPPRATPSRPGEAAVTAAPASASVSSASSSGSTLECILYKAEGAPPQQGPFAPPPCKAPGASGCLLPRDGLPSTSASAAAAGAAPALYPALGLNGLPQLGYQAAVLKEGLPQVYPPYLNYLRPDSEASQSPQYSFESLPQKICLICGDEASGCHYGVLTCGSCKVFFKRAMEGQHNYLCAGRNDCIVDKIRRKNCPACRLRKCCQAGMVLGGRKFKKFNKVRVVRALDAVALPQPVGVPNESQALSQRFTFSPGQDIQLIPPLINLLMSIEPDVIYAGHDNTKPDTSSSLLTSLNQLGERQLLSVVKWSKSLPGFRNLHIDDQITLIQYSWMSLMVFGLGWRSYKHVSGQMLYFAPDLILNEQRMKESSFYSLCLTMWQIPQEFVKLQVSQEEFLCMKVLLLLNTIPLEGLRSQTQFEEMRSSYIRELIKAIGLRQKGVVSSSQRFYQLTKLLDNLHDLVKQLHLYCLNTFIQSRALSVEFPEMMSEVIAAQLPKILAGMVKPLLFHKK

Assay [1] concerns the target progesterone receptor isoform A (PR-A), full-length, Strep II tagged (human) (UniProt P06401). As to the kind of experiment: SEC-MALS; PR bound to antagonist RU486, no DNA; Superose 6 Increase; 20 mM Hepes, 50 mM NaCl, 5% glycerol, 1 mM TCEP, with or without 1 M urea, pH 7.5; both purified. (In general: Size exclusion chromatography separates by hydrodynamic size, large species first.)

Assay [2] has the same target. As to the kind of experiment: SEC-MALS; each protein alone, PR bound to agonist R5020, no DNA; Superose 6 Increase; 20 mM Hepes, 50 mM NaCl, 5% glycerol, 1 mM TCEP, with or without 1 M urea, pH 7.5; about 20-100 ug injected; both purified.

No constants are given. Whether binding was seen depends on the method and setting.

As to “progesterone receptor isoform A (PR-A), full-length, Strep II tagged (from UniProt P06401-2 1-769)”, the binding entry in assay [1] and in assay [2] was “no binding (condition: in the absence of DNA)” each time.
